# Results from article PMC11853350.
# Amino acid sequences for entries named in this document (tags omitted).
# UniProt Q03135: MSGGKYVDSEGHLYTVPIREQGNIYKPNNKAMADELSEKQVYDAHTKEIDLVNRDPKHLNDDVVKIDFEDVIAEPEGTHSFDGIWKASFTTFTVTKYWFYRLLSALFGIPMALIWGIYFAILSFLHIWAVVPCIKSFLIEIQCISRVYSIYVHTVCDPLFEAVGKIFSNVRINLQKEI
# Results are given in words; binding and its absence hold for the method and conditions named. Binding seen in cells or lysates may run through a third protein. Some binding calls cover weakened binding; strength is not graded here.
# T1: Sorting nexin 19 (SNX19) (human (endogenous in human RPTCs)) (UniProt Q92543)
# T1 sequence: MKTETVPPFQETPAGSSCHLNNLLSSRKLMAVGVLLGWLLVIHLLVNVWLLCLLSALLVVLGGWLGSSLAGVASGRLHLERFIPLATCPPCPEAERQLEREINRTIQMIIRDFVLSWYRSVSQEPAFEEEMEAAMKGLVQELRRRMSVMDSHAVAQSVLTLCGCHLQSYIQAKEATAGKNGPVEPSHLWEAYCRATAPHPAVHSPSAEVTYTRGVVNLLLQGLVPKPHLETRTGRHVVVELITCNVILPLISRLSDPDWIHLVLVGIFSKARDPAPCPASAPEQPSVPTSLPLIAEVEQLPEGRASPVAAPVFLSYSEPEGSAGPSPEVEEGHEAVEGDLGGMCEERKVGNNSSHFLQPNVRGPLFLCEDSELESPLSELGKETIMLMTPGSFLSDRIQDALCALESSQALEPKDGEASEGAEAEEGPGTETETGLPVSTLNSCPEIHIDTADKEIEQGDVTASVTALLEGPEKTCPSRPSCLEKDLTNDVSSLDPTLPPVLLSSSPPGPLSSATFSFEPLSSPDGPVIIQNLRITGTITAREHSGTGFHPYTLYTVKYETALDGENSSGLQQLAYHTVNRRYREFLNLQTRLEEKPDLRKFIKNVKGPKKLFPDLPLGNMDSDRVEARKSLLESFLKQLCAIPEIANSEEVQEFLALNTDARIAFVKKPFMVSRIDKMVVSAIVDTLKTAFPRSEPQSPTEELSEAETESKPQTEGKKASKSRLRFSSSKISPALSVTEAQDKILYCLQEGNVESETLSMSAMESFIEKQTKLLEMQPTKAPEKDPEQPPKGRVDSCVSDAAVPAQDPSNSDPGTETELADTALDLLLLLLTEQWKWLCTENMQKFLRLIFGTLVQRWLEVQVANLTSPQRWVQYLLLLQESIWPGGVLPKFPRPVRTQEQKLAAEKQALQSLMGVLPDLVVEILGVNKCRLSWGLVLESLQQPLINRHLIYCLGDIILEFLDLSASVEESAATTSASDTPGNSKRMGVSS
# T2: Flotillin-1 (human (endogenous in human RPTCs)) (UniProt O75955)
# T2 sequence: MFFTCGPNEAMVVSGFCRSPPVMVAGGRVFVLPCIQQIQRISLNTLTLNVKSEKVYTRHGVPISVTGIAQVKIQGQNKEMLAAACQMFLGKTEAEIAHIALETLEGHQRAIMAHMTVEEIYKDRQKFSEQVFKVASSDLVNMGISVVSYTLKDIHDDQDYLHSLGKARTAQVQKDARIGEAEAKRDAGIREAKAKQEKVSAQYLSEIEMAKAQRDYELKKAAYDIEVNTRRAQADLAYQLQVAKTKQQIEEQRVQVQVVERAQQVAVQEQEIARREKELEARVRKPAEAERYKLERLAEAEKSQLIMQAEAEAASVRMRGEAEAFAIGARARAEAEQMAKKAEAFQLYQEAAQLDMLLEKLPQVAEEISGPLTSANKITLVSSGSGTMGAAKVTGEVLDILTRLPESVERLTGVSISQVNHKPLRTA
# Columns and labels:
# Assay in all cases: co-IP; human RPTC lysates incubated with normal rabbit IgG, anti-SNX19, anti-caveolin-1 or anti-flotillin-1 antibodies; SDS-PAGE and immunoblotting; both orientations; cells in the basal state or treated with fenoldopam (25 nM, 30 min) and/or SCH39166 (1 µM, 30 min)
# [1] = target: T1, Sorting nexin 19 (SNX19) (human (endogenous in human RPTCs))
# [2] = target: Caveolin-1 (human (endogenous in human RPTCs)) (UniProt Q03135)
# [3] = target: T2, Flotillin-1 (human (endogenous in human RPTCs))
binding [1],binding [2],binding [3],Molecule
binds,–,–,Caveolin-1 (from UniProt Q03135 1-178)
binds,–,–,"Flotillin-1 (protein, UniProt O75955 1-427) MFFTCGPNEAMVVSGFCRSPPVMVAGGRVFVLPCIQQIQRISLNTLTLNVKSEKVYTRHGVPISVTGIAQVKIQGQNKEMLAAACQMFLGKTEAEIAHIALETLEGHQRAIMAHMTVEEIYKDRQKFSEQVFKVASSDLVNMGISVVSYTLKDIHDDQDYLHSLGKARTAQVQKDARIGEAEAKRDAGIREAKAKQEKVSAQYLSEIEMAKAQRDYELKKAAYDIEVNTRRAQADLAYQLQVAKTKQQIEEQRVQVQVVERAQQVAVQEQEIARREKELEARVRKPAEAERYKLERLAEAEKSQLIMQAEAEAASVRMRGEAEAFAIGARARAEAEQMAKKAEAFQLYQEAAQLDMLLEKLPQVAEEISGPLTSANKITLVSSGSGTMGAAKVTGEVLDILTRLPESVERLTGVSISQVNHKPLRTA"
–,binds,binds,"Sorting nexin 19 (SNX19) (protein, UniProt Q92543-1 1-992) MKTETVPPFQETPAGSSCHLNNLLSSRKLMAVGVLLGWLLVIHLLVNVWLLCLLSALLVVLGGWLGSSLAGVASGRLHLERFIPLATCPPCPEAERQLEREINRTIQMIIRDFVLSWYRSVSQEPAFEEEMEAAMKGLVQELRRRMSVMDSHAVAQSVLTLCGCHLQSYIQAKEATAGKNGPVEPSHLWEAYCRATAPHPAVHSPSAEVTYTRGVVNLLLQGLVPKPHLETRTGRHVVVELITCNVILPLISRLSDPDWIHLVLVGIFSKARDPAPCPASAPEQPSVPTSLPLIAEVEQLPEGRASPVAAPVFLSYSEPEGSAGPSPEVEEGHEAVEGDLGGMCEERKVGNNSSHFLQPNVRGPLFLCEDSELESPLSELGKETIMLMTPGSFLSDRIQDALCALESSQALEPKDGEASEGAEAEEGPGTETETGLPVSTLNSCPEIHIDTADKEIEQGDVTASVTALLEGPEKTCPSRPSCLEKDLTNDVSSLDPTLPPVLLSSSPPGPLSSATFSFEPLSSPDGPVIIQNLRITGTITAREHSGTGFHPYTLYTVKYETALDGENSSGLQQLAYHTVNRRYREFLNLQTRLEEKPDLRKFIKNVKGPKKLFPDLPLGNMDSDRVEARKSLLESFLKQLCAIPEIANSEEVQEFLALNTDARIAFVKKPFMVSRIDKMVVSAIVDTLKTAFPRSEPQSPTEELSEAETESKPQTEGKKASKSRLRFSSSKISPALSVTEAQDKILYCLQEGNVESETLSMSAMESFIEKQTKLLEMQPTKAPEKDPEQPPKGRVDSCVSDAAVPAQDPSNSDPGTETELADTALDLLLLLLTEQWKWLCTENMQKFLRLIFGTLVQRWLEVQVANLTSPQRWVQYLLLLQESIWPGGVLPKFPRPVRTQEQKLAAEKQALQSLMGVLPDLVVEILGVNKCRLSWGLVLESLQQPLINRHLIYCLGDIILEFLDLSASVEESAATTSASDTPGNSKRMGVSS"
